The source of these data is publication PMC11874553.

The chains behind the UniProt entries cited, without tags or fusion partners.
UniProt Q96P20: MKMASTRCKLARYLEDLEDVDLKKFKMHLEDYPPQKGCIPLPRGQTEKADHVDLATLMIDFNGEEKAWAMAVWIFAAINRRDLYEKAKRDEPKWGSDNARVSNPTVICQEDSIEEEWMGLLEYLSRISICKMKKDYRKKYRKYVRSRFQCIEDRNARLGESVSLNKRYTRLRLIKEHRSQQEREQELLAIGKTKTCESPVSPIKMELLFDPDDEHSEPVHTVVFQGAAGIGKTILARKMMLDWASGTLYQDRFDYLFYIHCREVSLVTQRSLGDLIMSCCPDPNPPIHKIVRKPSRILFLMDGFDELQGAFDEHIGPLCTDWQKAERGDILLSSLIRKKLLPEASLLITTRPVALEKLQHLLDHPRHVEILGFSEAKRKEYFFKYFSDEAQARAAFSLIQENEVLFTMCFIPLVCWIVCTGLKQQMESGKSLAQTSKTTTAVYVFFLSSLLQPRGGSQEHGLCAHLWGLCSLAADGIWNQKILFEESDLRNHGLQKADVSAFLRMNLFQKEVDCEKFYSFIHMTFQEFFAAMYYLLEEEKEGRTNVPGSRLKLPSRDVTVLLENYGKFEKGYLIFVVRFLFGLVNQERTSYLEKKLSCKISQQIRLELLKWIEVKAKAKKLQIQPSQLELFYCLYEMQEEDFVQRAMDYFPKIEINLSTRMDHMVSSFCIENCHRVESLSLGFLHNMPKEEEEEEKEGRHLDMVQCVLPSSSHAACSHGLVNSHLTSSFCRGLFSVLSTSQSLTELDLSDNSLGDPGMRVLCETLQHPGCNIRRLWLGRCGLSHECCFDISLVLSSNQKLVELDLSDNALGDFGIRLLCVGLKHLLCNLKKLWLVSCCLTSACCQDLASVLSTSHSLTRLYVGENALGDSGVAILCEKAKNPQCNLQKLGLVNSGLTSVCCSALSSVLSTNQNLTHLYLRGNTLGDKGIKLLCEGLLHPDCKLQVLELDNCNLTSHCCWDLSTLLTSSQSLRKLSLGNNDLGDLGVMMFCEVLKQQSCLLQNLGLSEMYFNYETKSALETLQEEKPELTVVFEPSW

Results are given in words; binding and its absence hold for the method and conditions named. Binding seen in cells or lysates may run through a third protein. Some entries that bind do so weakly or less than the wild type.

The target in this assay is NLRP3 (human (endogenous in HNE-2)) (UniProt Q96P20). The experiment in a line: co-IP; total protein from HNE-2 cells incubated overnight at 4 °C with IgG and specific antibodies; protein A/G PLUS-agarose beads 6 h at 4 °C; Western blot with anti-TMEM71 and anti-NLRP3. (In general: In western blotting, separated proteins are transferred to a membrane and probed.)

B1: TMEM71 (protein, UniProt Q6P5X7 1-295)
chain: MYRISQLMSTPVASSSRLEREYAGELSPTCIFPSFTCDSLDGYHSFECGSIDPLTGSHYTCRRSPRLLTNGYYIWTEDSFLCDKDGNITLNPSQTSVMYKENLVRIFRKKKRICHSFSSLFNLSTSKSWLHGSIFGDINSSPSEDNWLKGTRRLDTDHCNGNADDLDCSSLTDDWESGKMNAESVITSSSSHIISQPPGGNSHSLSLQSQLTASERFQENSSDHSETRLLQEVFFQAILLAVCLIISACARWFMGEILASVFTCSLMITVAYVKSLFLSLASYFKTTACARFVKI
On to B1, for which the binding entry is “binds”.
